Results are given in words; binding and its absence hold for the method and conditions named. Binding seen in cells or lysates may run through a third protein. Some results given as binding are weak or reduced against the parent protein; the word gives no strength. Tags and fused reporters may be left off the sequences shown.
How the values were obtained:
METTL11A-FLAG (human) = METTL11A-FLAG (human) (UniProt Q9BV86); experiment: co-IP; HEK293T cells co-transfected with a FLAG and a GFP construct; lysis in 50 mM Tris, 300 mM NaCl, 5 mM MgCl2, 1% NP-40, 7 mM BME; anti-FLAG M2 agarose, 1 to 2 h at 4 °C; washes with PBS + 0.1% NP-40 + 500 mM NaCl; Western blot with anti-GFP
[1] = target: His-tagged recombinant METTL11A (pETDuet-1) (human) (UniProt Q9BV86); experiment: pull-down; co-purification: one His-tagged and one untagged protein co-expressed in bacteria from pETDuet-1, purified by the His tag, seen on a gel
METTL11B-FLAG (human) [2] = target: METTL11B-FLAG (human) (UniProt Q5VVY1); experiment: co-IP; control HCT116 cells and METTL11A KO (CRISPR-Cas9) HCT116 cells transfected with METTL11B-FLAG and METTL13-GFP; anti-FLAG M2 agarose; washes with PBS + 0.1% NP-40 + 500 mM NaCl; Western blot with anti-GFP
METTL11B-FLAG (human) [3] = target: METTL11B-FLAG (human) (UniProt Q5VVY1); experiment: co-IP; HEK293T cells co-transfected with a FLAG and a GFP construct; lysis in 50 mM Tris, 300 mM NaCl, 5 mM MgCl2, 1% NP-40, 7 mM BME; anti-FLAG M2 agarose, 1 to 2 h at 4 °C; washes with PBS + 0.1% NP-40 + 500 mM NaCl; Western blot with anti-GFP

Chains of the proteins cited; added tags and fusions are not shown. Lines headed by an entry give the natural chain unless they say otherwise; changes in a name come on top. A line that says so, or that is headed by a name, gives the form on record, which may keep a tag or linker. Residues count along the entry.
UniProt Q9BV86: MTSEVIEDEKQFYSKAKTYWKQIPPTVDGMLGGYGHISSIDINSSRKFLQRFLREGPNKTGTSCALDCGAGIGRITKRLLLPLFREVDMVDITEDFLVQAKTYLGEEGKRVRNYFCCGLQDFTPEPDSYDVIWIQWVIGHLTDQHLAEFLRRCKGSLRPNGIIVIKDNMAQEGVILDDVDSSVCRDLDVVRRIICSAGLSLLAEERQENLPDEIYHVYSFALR
His-tagged recombinant METTL11A (pETDuet-1): residues 2-223 of Q9BV86

Binder	binding (METTL11A-FLAG (human))	further results
METTL11B-GFP D232N (enzyme, UniProt Q5VVY1 1-283) MAHRGAHFAFRSRWQKTDDELCRHSMSFILHKAIRNDFFQSYLYLLEKIPLVKLYALTSQVINGEMQFYARAKLFYQEVPATEEGMMGNFIELSSPDIQASQKFLRKFVGGPGRAGTDCALDCGSGIGRVSKHVLLPVFNSVELVDMMESFLLEAQNYLQVKGDKVESYHCYSLQEFTPPFRRYDVIWIQWVSGHLTDKDLLAFLSRCRDGLKENGIIILKDNVAREGCILNLSDSSVTRDMDILRSLIRKSGLVVLGQEKQDGFPEQCIPVWMFALHSDRHS	binds	–
Untagged recombinant METTL13 (pETDuet-1) (enzyme, UniProt Q8N6R0 1-699) MNLLPKSSREFGSVDYWEKFFQQRGKKAFEWYGTYLELCGVLHKYIKPREKVLVIGCGNSELSEQLYDVGYRDIVNIDISEVVIKQMKECNATRRPQMSFLKMDMTQMEFPDASFQVVLDKGTLDAVLTDEEEKTLQQVDRMLAEVGRVLQVGGRYLCISLAQAHILKKAVGHFSREGWMVRVHQVANSQDQVLEAEPQFSLPVFAFIMTKFRPVPGSALQIFELCAQEQRKPVRLESAERLAEAVQERQQYAWLCSQLRRKARLGSVSLDLCDGDTGEPRYTLHVVDSPTVKPSRDNHFAIFIIPQGRETEWLFGMDEGRKQLAASAGFRRLITVALHRGQQYESMDHIQAELSARVMELAPAGMPTQQQVPFLSVGGDIGVRTVQHQDCSPLSGDYVIEDVQGDDKRYFRRLIFLSNRNVVQSEARLLKDVSHKAQKKRKKDRKKQRPADAEDLPAAPGQSIDKSYLCCEHHKAMIAGLALLRNPELLLEIPLALLVVGLGGGSLPLFVHDHFPKSCIDAVEIDPSMLEVATQWFGFSQSDRMKVHIADGLDYIASLAGGGEARPCYDVIMFDVDSKDPTLGMSCPPPAFVEQSFLQKVKSILTPEGVFILNLVCRDLGLKDSVLAGLKAVFPLLYVRRIEGEVNEILFCQLHPEQKLATPELLETAQALERTLRKPGRGWDDTYVLSDMLKTVKIV	–	binding [1]: binds
METTL13-GFP (enzyme, UniProt Q8N6R0 1-699) MNLLPKSSREFGSVDYWEKFFQQRGKKAFEWYGTYLELCGVLHKYIKPREKVLVIGCGNSELSEQLYDVGYRDIVNIDISEVVIKQMKECNATRRPQMSFLKMDMTQMEFPDASFQVVLDKGTLDAVLTDEEEKTLQQVDRMLAEVGRVLQVGGRYLCISLAQAHILKKAVGHFSREGWMVRVHQVANSQDQVLEAEPQFSLPVFAFIMTKFRPVPGSALQIFELCAQEQRKPVRLESAERLAEAVQERQQYAWLCSQLRRKARLGSVSLDLCDGDTGEPRYTLHVVDSPTVKPSRDNHFAIFIIPQGRETEWLFGMDEGRKQLAASAGFRRLITVALHRGQQYESMDHIQAELSARVMELAPAGMPTQQQVPFLSVGGDIGVRTVQHQDCSPLSGDYVIEDVQGDDKRYFRRLIFLSNRNVVQSEARLLKDVSHKAQKKRKKDRKKQRPADAEDLPAAPGQSIDKSYLCCEHHKAMIAGLALLRNPELLLEIPLALLVVGLGGGSLPLFVHDHFPKSCIDAVEIDPSMLEVATQWFGFSQSDRMKVHIADGLDYIASLAGGGEARPCYDVIMFDVDSKDPTLGMSCPPPAFVEQSFLQKVKSILTPEGVFILNLVCRDLGLKDSVLAGLKAVFPLLYVRRIEGEVNEILFCQLHPEQKLATPELLETAQALERTLRKPGRGWDDTYVLSDMLKTVKIV	binds	binding (METTL11B-FLAG (human) [2]): binds; binding (METTL11B-FLAG (human) [3]): binds
METTL13 N-terminal fragment (residues M1-Y344)-GFP (domain or fragment, UniProt Q8N6R0 1-344) MNLLPKSSREFGSVDYWEKFFQQRGKKAFEWYGTYLELCGVLHKYIKPREKVLVIGCGNSELSEQLYDVGYRDIVNIDISEVVIKQMKECNATRRPQMSFLKMDMTQMEFPDASFQVVLDKGTLDAVLTDEEEKTLQQVDRMLAEVGRVLQVGGRYLCISLAQAHILKKAVGHFSREGWMVRVHQVANSQDQVLEAEPQFSLPVFAFIMTKFRPVPGSALQIFELCAQEQRKPVRLESAERLAEAVQERQQYAWLCSQLRRKARLGSVSLDLCDGDTGEPRYTLHVVDSPTVKPSRDNHFAIFIIPQGRETEWLFGMDEGRKQLAASAGFRRLITVALHRGQQY	binds	–
METTL13 C-terminal fragment (residues E345-V699)-GFP (domain or fragment, UniProt Q8N6R0 345-699) ESMDHIQAELSARVMELAPAGMPTQQQVPFLSVGGDIGVRTVQHQDCSPLSGDYVIEDVQGDDKRYFRRLIFLSNRNVVQSEARLLKDVSHKAQKKRKKDRKKQRPADAEDLPAAPGQSIDKSYLCCEHHKAMIAGLALLRNPELLLEIPLALLVVGLGGGSLPLFVHDHFPKSCIDAVEIDPSMLEVATQWFGFSQSDRMKVHIADGLDYIASLAGGGEARPCYDVIMFDVDSKDPTLGMSCPPPAFVEQSFLQKVKSILTPEGVFILNLVCRDLGLKDSVLAGLKAVFPLLYVRRIEGEVNEILFCQLHPEQKLATPELLETAQALERTLRKPGRGWDDTYVLSDMLKTVKIV	no binding	–

The next lines start with results.

binding (METTL11A-FLAG (human))	Binder	further results
binds	METTL11B-GFP Q67H (enzyme, UniProt Q5VVY1 1-283) MAHRGAHFAFRSRWQKTDDELCRHSMSFILHKAIRNDFFQSYLYLLEKIPLVKLYALTSQVINGEMHFYARAKLFYQEVPATEEGMMGNFIELSSPDIQASQKFLRKFVGGPGRAGTDCALDCGSGIGRVSKHVLLPVFNSVELVDMMESFLLEAQNYLQVKGDKVESYHCYSLQEFTPPFRRYDVIWIQWVSGHLTDKDLLAFLSRCRDGLKENGIIILKDNVAREGCILDLSDSSVTRDMDILRSLIRKSGLVVLGQEKQDGFPEQCIPVWMFALHSDRHS	–
binds	METTL11B-GFP F68L (enzyme, UniProt Q5VVY1 1-283) MAHRGAHFAFRSRWQKTDDELCRHSMSFILHKAIRNDFFQSYLYLLEKIPLVKLYALTSQVINGEMQLYARAKLFYQEVPATEEGMMGNFIELSSPDIQASQKFLRKFVGGPGRAGTDCALDCGSGIGRVSKHVLLPVFNSVELVDMMESFLLEAQNYLQVKGDKVESYHCYSLQEFTPPFRRYDVIWIQWVSGHLTDKDLLAFLSRCRDGLKENGIIILKDNVAREGCILDLSDSSVTRDMDILRSLIRKSGLVVLGQEKQDGFPEQCIPVWMFALHSDRHS	–
binds	METTL11B-GFP V224L (enzyme, UniProt Q5VVY1 1-283) MAHRGAHFAFRSRWQKTDDELCRHSMSFILHKAIRNDFFQSYLYLLEKIPLVKLYALTSQVINGEMQFYARAKLFYQEVPATEEGMMGNFIELSSPDIQASQKFLRKFVGGPGRAGTDCALDCGSGIGRVSKHVLLPVFNSVELVDMMESFLLEAQNYLQVKGDKVESYHCYSLQEFTPPFRRYDVIWIQWVSGHLTDKDLLAFLSRCRDGLKENGIIILKDNLAREGCILDLSDSSVTRDMDILRSLIRKSGLVVLGQEKQDGFPEQCIPVWMFALHSDRHS	–
